Results on 3 molecules are retold here after article doi:10.1101/2020.06.15.152942.

Amino acid sequences for entries named in this document (tags omitted).
UniProt Q02156: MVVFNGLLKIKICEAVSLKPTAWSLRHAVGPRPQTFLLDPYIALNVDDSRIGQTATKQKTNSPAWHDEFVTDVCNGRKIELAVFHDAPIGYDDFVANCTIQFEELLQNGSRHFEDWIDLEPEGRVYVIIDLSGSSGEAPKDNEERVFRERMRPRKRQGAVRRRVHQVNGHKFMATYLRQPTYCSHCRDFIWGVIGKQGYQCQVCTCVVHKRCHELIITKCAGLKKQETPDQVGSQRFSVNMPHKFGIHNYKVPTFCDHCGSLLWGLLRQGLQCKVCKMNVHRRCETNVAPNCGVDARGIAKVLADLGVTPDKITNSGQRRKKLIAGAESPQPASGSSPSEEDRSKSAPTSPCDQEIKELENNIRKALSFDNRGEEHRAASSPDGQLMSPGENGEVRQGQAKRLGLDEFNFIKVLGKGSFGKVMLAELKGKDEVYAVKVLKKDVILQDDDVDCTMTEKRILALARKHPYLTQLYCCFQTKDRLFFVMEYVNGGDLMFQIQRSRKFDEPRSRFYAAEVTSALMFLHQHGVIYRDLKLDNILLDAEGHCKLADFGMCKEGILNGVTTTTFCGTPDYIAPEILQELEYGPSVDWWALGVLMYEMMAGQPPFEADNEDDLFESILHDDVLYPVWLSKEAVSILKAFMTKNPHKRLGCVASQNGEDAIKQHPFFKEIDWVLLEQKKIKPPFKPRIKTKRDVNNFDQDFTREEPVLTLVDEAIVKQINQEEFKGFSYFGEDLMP

Read-outs that look alike come from different tables or passages of the source. No constants are given. Whether binding was seen depends on the method and setting. In cells and extracts the contact can be indirect. Here binding means that the protein was enriched with, or labelled near, the bait; the list need not be complete. Where a sequence is shown, tags or fusion partners need not be part of it.

The target of assay [1] is T1, N-terminal GST tagged PTP-PEST (human) (UniProt Q05209).
T1 sequence: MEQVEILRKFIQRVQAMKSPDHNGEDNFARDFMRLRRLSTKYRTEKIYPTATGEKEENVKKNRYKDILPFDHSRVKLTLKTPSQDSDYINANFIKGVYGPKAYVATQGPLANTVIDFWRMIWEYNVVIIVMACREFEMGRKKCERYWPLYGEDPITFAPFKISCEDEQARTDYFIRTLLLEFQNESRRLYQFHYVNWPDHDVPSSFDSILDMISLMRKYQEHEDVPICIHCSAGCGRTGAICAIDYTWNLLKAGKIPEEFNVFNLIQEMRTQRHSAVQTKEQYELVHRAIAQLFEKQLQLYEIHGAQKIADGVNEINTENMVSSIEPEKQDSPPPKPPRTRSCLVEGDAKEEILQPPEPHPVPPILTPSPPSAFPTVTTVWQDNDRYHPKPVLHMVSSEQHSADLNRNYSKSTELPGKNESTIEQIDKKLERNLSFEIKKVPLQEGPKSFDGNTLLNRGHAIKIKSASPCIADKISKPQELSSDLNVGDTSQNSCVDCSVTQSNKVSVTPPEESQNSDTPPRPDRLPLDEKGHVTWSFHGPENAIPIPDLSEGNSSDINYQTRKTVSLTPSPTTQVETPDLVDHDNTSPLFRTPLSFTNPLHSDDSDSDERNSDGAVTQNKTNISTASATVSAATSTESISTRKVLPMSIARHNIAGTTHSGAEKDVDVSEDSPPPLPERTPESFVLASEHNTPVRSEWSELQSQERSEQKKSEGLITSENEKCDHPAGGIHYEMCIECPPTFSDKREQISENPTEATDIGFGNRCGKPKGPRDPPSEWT
Briefly: affinity purification with mass spectrometry.

Assay [2] deals with T1, N-terminal GST tagged PTP-PEST (human). Briefly: affinity purification with mass spectrometry. The source holds these as a separate data set.

For “PKC epsilon (from UniProt Q02156 1-737) (enzyme)”, the binding result in assay [1] is listed as “binds”.

B1: myotubularin related protein 6 (MTMR6) (enzyme, UniProt Q9Y217 1-621)
chain: MEHIRTTKVEQVKLLDRFSTSNKSLTGTLYLTATHLLFIDSHQKETWILHHHIASVEKLALTTSGCPLVIQCKNFRTVHFIVPRERDCHDIYNSLLQLSKQAKYEDLYAFSYNPKQNDSERLQGWQLIDLAEEYKRMGVPNSHWQLSDANRDYKICETYPRELYVPRIASKPIIVGSSKFRSKGRFPVLSYYHQDKEAAICRCSQPLSGFSARCLEDEHLLQAISKANPVNRYMYVMDTRPKLNAMANRAAGKGYENEDNYSNIRFQFVGIENIHVMRSSLQKLLEVNGTKGLSVNDFYSGLESSGWLRHIKAVMDAAIFLAKAITVENASVLVHCSDGWDRTSQVCSLGSLLLDSYYRTIKGFMVLIEKDWISFGHKFSERCGQLDGDPKEVSPVFTQFLECVWHLTEQFPQAFEFSEAFLLQIHEHIHSCQFGNFLGNCQKEREELKLKEKTYSLWPFLLEDQKKYLNPLYSSESHRFTVLEPNTVSFNFKFWRNMYHQFDRTLHPRQSVFNIIMNMNEQNKQLEKDIKDLESKIKQRKNKQTDGILTKELLHSVHPESPNLKTSLCFKEQTLLPVNDALRTIEGSSPADNRYSEYAEEFSKSEPAVVSLEYGVARMTC
On to B1, for which, in assay [2], the binding result was “binds”.

B2: sarcolemmal membrane associated protein (SLAMP) (protein, UniProt Q14BN4 1-828)
chain: MPSALAIFTCRPNSHPFQERHVYLDEPIKIGRSVARCRPAQNNATFDCKVLSRNHALVWFDHKTGKFYLQDTKSSNGTFINSQRLSRGSEESPPCEILSGDIIQFGVDVTENTRKVTHGCIVSTIKLFLPDGMEARLRSDVIHAPLPSPVDKVAANTPSMYSQELFQLSQYLQEALHREQMLEQKLATLQRLLAITQEASDTSWQALIDEDRLLSRLEVMGNQLQACSKNQTEDSLRKELIALQEDKHNYETTAKESLRRVLQEKIEVVRKLSEVERSLSNTEDECTHLKEMNERTQEELRELANKYNGAVNEIKDLSDKLKVAEGKQEEIQQKGQAEKKELQHKIDEMEEKEQELQAKIEALQADNDFTNERLTALQVRLEHLQEKTLKECSSLEHLLSKSGGDCTFIHQFIECQKKLIVEGHLTKAVEETKLSKENQTRAKESDFSDTLSPSKEKSSDDTTDAQMDEQDLNEPLAKVSLLKDDLQGAQSEIEAKQEIQHLRKELIEAQELARTSKQKCFELQALLEEERKAYRNQVEESTKQIQVLQAQLQRLHIDTENLREEKDSEITSTRDELLSARDEILLLHQAAAKVASERDTDIASLQEELKKVRAELERWRKAASEYEKEITSLQNSFQLRCQQCEDQQREEATRLQGELEKLRKEWNALETECHSLKRENVLLSSELQRQEKELHNSQKQSLELTSDLSILQMSRKELENQVGSLKEQHLRDSADLKTLLSKAENQAKDVQKEYEKTQTVLSELKLKFEMTEQEKQSITDELKQCKNNLKLLREKGNNKPWPWMPMLAALVAVTAIVLYVPGLARASP
With B2, the binding entry in assay [2] was “binds”.
